These are yes or no findings as the source states them, for the method shown. In cells and extracts the contact can be indirect. Some entries that bind do so weakly or less than the wild type.
Molecular target: T1, Chromobox 8 (human (endogenous in T24 and BIU-87)) (UniProt Q9HC52)
T1 sequence: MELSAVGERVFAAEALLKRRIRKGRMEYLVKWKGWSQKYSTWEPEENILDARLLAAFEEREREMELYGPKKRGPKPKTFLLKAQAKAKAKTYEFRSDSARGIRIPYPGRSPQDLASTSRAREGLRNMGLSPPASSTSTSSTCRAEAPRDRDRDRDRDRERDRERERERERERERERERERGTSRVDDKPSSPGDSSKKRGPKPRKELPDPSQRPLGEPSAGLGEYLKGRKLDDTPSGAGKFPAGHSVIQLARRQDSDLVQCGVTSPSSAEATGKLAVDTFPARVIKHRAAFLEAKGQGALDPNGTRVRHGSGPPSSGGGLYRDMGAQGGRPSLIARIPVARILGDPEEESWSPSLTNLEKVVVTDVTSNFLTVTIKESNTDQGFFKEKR
Assay: co-IP; lysate of T24 cells; precipitated with anti-CBX8 antibody (IgG as negative control), 4 °C overnight, protein A agarose; Western blot for BCOR

Amino acid sequences for entries named in this document (tags omitted).
UniProt Q6W2J9: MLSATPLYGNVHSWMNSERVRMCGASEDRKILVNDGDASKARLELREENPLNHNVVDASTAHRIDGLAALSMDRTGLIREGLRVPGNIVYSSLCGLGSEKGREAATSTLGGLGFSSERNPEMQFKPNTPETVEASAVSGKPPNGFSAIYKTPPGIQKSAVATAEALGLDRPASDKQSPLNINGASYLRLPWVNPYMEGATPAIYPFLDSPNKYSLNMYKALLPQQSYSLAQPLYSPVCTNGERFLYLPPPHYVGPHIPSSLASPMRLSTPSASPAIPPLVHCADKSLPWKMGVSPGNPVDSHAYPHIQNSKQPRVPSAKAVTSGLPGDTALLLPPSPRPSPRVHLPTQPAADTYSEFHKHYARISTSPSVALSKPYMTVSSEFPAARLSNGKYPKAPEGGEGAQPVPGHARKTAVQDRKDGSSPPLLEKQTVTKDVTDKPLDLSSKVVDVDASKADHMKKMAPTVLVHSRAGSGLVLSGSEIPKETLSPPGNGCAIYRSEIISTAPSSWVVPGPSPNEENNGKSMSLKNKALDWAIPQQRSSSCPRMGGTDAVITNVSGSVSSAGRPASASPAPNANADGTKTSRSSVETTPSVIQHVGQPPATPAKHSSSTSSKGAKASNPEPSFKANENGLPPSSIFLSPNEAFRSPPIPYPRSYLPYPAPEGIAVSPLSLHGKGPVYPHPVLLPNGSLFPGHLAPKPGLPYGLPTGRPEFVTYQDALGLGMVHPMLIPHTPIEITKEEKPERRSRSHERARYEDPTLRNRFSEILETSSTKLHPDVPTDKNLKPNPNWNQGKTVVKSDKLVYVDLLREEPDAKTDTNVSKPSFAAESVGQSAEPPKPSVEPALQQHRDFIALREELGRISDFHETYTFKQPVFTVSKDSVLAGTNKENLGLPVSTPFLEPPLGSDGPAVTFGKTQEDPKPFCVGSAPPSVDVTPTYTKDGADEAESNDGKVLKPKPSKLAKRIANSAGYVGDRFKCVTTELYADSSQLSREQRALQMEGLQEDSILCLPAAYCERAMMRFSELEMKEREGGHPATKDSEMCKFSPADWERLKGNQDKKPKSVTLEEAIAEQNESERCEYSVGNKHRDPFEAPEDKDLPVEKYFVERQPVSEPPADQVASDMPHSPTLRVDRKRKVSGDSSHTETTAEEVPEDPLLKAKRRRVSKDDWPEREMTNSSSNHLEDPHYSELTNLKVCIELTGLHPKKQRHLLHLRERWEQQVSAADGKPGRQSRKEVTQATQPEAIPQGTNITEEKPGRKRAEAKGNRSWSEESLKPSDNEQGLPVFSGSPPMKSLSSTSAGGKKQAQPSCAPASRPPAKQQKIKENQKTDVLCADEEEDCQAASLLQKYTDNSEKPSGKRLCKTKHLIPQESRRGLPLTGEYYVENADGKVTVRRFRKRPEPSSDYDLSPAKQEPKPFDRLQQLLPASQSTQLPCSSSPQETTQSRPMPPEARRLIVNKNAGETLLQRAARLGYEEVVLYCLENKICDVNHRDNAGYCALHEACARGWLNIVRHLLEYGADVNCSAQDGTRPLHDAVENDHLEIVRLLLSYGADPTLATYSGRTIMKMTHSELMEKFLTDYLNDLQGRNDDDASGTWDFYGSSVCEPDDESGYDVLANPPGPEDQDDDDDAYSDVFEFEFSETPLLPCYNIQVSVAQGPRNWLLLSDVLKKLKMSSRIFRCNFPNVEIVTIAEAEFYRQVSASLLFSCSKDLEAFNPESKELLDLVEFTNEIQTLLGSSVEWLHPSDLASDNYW

- binding: binds
Substance: BCL6 corepressor (from UniProt Q6W2J9 1-1755)
